The values that follow come from patent US20070281865A1, “MULTI-FUNCTIONAL SPACER FOR GLYCANS” (priority 2006, published 2007).

“Also recorded” adds a separate entry of the source.

The data set can be described thus: Printing (immobilization) efficiency on NHS-activated slides, detected with RCA-I. The settings on record: printed 200 μM to 0.4 μM on NHS-activated slides, RCA-I detection.

Take `CC(=O)NC1C(N)OC(CO)C(OC2OC(CO)C(O)C(O)C2O)C1O` (stereo not drawn) [Compound 1009, reference compound]: the “immobilization / printing efficiency (in words)” value is on record as “No detectable amounts”. In the case of `CC(=O)NC1C(Oc2ccc(N)cc2)OC(CO)C(OC2OC(CO)C(O)C(O)C2O)C1O` (stereo not drawn) [Compound 1008, reference compound] it was “bound less well; also recorded: not readily immobilized”; in that of `CC(=O)NC1C(O)C(OC2OC(CO)C(O)C(O)C2O)C(CO)OC1N(C)OCCN` (stereo not drawn) [Compound 1006], “printed with equal efficiency; also recorded: readily immobilized”.
